Source: PubChem BioAssay AID1259254 (NCATS, 2017)

Screen: 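Finding genes that stop cells copying their DNA twice in one cycle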 (primary screen)
System: human HCT116 colorectal cancer cells
Reagent: single siRNA against human genes
Timing: 3 days
Read-out: 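Imaged Hoechst DNA stain sorts each cell into a cycle phase by DNA amount; per plate, G2 fraction set to 0% for non-targeting and 100% for GMNN siRNA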
Direction: G2 robust z-score: higher = more G2 cells, more excess DNA replication
Call rule: 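Active siRNAs have a G2 robust z of 5 or more median absolute deviations over the median, which in these data means about 38% or higher of GMNN control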
The whole screen tested about 59,000 reagents; below is an unselected part. About 1,550 of them (2.6%) were called active. 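G2 share is only a proxy for re-replication; each gene was hit by three separate siRNAs, and active genes were retested.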 Reagents against one gene are numbered here. Further read-outs or replicates are left out here. Not given: the amount of reagent.

G2 robust z-score, by gene and reagent
TRIM54 (tripartite motif containing 54): #1 -0.143 inactive; #2 -0.944 inactive; #3 0.714 inactive
TAF6 (TATA-box binding protein associated factor 6): #1 0.681 inactive; #2 3.18 inactive; #3 1.09 inactive
TGFA (transforming growth factor alpha): #1 -0.413 inactive; #2 -0.667 inactive; #3 0.328 inactive
RHOD (ras homolog family member D): #1 -0.043 inactive; #2 -1.35 inactive; #3 0.743 inactive
GAL3ST2 (galactose-3-O-sulfotransferase 2): #1 0.578 inactive; #2 1.55 inactive; #3 -0.726 inactive
VCPIP1 (valosin containing protein interacting protein 1): #1 -0.525 inactive; #2 -0.453 inactive; #3 -0.534 inactive
MPV17L2 (MPV17 mitochondrial inner membrane protein like 2): #1 5.11 active; #2 -1.35 inactive; #3 -0.255 inactive
GALNT13 (polypeptide N-acetylgalactosaminyltransferase 13): #1 -0.207 inactive; #2 -0.734 inactive; #3 -0.882 inactive
NUDCD2 (NudC domain containing 2): #1 -0.309 inactive; #2 1.2 inactive; #3 -0.76 inactive

Active calls, among the entries above:
G2 robust z-score, by gene and reagent
MPV17L2 (MPV17 mitochondrial inner membrane protein like 2): #1 5.11 active

The listing continues:
G2 robust z-score, by gene and reagent
NFASC (neurofascin): #1 -0.646 inactive; #2 -0.198 inactive; #3 0.413 inactive
NXN (nucleoredoxin): #1 0.204 inactive; #2 -0.269 inactive; #3 -0.232 inactive
USP28 (ubiquitin specific peptidase 28): #1 0.246 inactive; #2 -1.13 inactive; #3 -0.185 inactive
TSPAN18 (tetraspanin 18): #1 1.51 inactive; #2 -0.259 inactive; #3 0.498 inactive
EXT1 (exostosin glycosyltransferase 1): #1 -0.938 inactive; #2 -0.194 inactive; #3 -0.804 inactive
PDHB (pyruvate dehydrogenase E1 subunit beta): #1 -1.09 inactive; #2 1.49 inactive; #3 3.78 inactive
ZNRD2 (zinc ribbon domain containing 2): #1 -0.0815 inactive; #2 -0.364 inactive; #3 0.298 inactive
TBX22 (T-box transcription factor 22): #1 -0.817 inactive; #2 0.232 inactive; #3 -0.979 inactive
OR2T12 (olfactory receptor family 2 subfamily T member 12): #1 -1.06 inactive; #2 0.188 inactive; #3 0.306 inactive
CSDC2 (cold shock domain containing C2): #1 1.56 inactive; #2 4.45 inactive; #3 2.69 inactive
MAP3K1 (mitogen-activated protein kinase kinase kinase 1): #1 -0.511 inactive; #2 -0.822 inactive; #3 -0.798 inactive
DNAJC3 (DnaJ heat shock protein family (Hsp40) member C3): #1 0.212 inactive; #2 1.02 inactive; #3 1.46 inactive
PLPPR4 (phospholipid phosphatase related 4): #1 -1.32 inactive; #2 0.285 inactive; #3 1.41 inactive
C1orf146 (chromosome 1 open reading frame 146): #1 1.19 inactive; #2 -0.282 inactive; #3 0.239 inactive
